From paper PMC12040169 (PLOS Biology, 2025) come the findings set out here.

Some of the results follow.

The test has as its system T1, CTL2-GFP (C. trachomatis L2/434/Bu, GFP-expressing).
T1 construct: L2/434/Bu, GFP-expressing
Details: species or system HeLa; Intracellular C. trachomatis growth in HeLa cells, bulk GFP fluorescence relative to DMSO. As to conditions: bulk GFP, single well; 28.5 h, 10 µM; inhibitor.
On to `Cc1ccc(OC(C)C(=O)NNC(=O)c2ccc([N+](=O)[O-])cc2)cc1` (stereo not drawn) [CBK269065], for which the “% of control remaining” value stood at 85.215%.
For `O=C(CCn1cccn1)Nc1ccc(OC2CCCC2)cc1` [CBK281861] the value was 113.654%.
For `CS(=O)(=O)N1CC2(CCN(CC3CCCCC3)CC2)c2ccccc21` [CBK084018] the value was 120.459%; for `O=[N+]([O-])c1ccc(/C=N/c2cccc(-c3nc4ccccc4s3)c2)cc1` [CBK293918], 139.212%.
In the case of `O=C(C1CCC1)N1CCC2(CC1)Nc1cccnc1-n1cccc12` [CBK284505], the “% of control remaining” value was determined as 74.0593%.
The figure for `Cc1ccc(-c2ccc(CCC(=O)O)n2CC(=O)O)cc1` [CBK286922] is 137.239%; for `C=CCn1c(COc2ccc(Cl)cc2)nnc1SCC(=O)O` [CBK263171] it is 96.7701%; for `Cc1cc(Cl)c(OCCNCCO)c(Br)c1` [CBK265066G] it is 72.9129%.
The figure for `Cc1ccc(SCCNC(=O)CSc2n[nH]c(=O)n2C2CC2)cc1` [CBK295605] is 130.685%; for `CSc1nnc(Cc2nnc(SC)n2-c2ccccc2)n1-c1ccccc1` [CBK267145] it is 125.412%; for `Cc1oc(C(=O)O)cc1CSCc1cc(C(=O)O)oc1C` [CBK263275] it is 125.978%.
For `c1ccc(Cn2cc(-c3nccnc3OC(c3ccccc3)c3ccccc3)cn2)cc1` [CBK107093] the value was 58.0993%.
With `O=C(CN1CCOCC1)N1CCC(Cn2cncn2)(C2CCCCC2)CC1` [CBK136803], the “% of control remaining” value is reported as 103.895%.
The figure for `CS(=O)(=O)N1CCCc2cc(-c3csc(-c4cnccn4)n3)ccc21` [CBK305239] is 114.42%; for `O=C(c1ccccc1F)N1CCC(O)(c2cccnc2F)CC1` [CBK284356] it is 128.385%.
For `CC(=O)N1CCCc2cc(C(O)CN3CCC(O)(c4ccc(F)cc4)CC3)ccc21` (stereo not drawn) [CBK286481] the value was 145.403%; for `CN(Cc1ccccc1)c1nc2c(c(=O)n(C)c(=O)n2C)n1CCSc1ncccn1` [CBK269564], 120.418%.
For `COc1ccc(Cl)cc1N1CCN(C/C=C/c2ccccc2)CC1` [CBK126415] the value was 89.0426%; for `CS(=O)(=O)N(Cc1ccc(Cl)cc1)c1ccc(C(=O)Nc2cccnc2)cc1` [CBK263334], 88.3638%; for `CN(C)Cc1cc(CN(C)C)c(O)c(C(C)(C)C)n1` [CBK260969], 100%.
Take `O=C(Nc1ccc(N2CCN(C(=O)c3ccccc3F)CC2)cc1)c1nc[nH]n1` [CBK269497]: the “% of control remaining” value turned out to be 118.769%.
For `O=C(Nc1ccc(S(=O)(=O)NCC2CCCO2)cc1)c1cc(-c2ccccc2)nc2ccccc12` (stereo not drawn) [CBK267537], the “% of control remaining” value amounted to 108.842%.
For `O=C(CC1CCCC1)NCCn1nc(-c2cccs2)ccc1=O` [CBK283841] the value was 98.0461%; for `COc1cc(/C=C2\NC(=S)NC2=O)c(Cl)cc1O` [CBK102003], 150.891%; for `CCc1nn(CC(=O)NC2CC2)c(=O)c2cc3sc(C)cc3n12` [CBK284099], 122.523%.
Consider `CC(=O)Nc1ccc(S(=O)(=O)N2CCC3(CC2)NC(=O)c2cc(-c4ccoc4)ccc2O3)cc1` [CBK115856], for which the “% of control remaining” value stood at 89.2181%.
The figure for `O=C(NC(Cc1cccs1)c1nccs1)c1ccncc1` (stereo not drawn) [CBK285134] is 118.442%; for `Cc1ccc(C(=O)c2coc3ccc(O)cc23)cc1` [CBK115557] it is 135.006%; for `N#Cc1c(N)nc2c(c1-c1cccnc1)CCCC2` [CBK287885] it is 141.019%.
As for `O=C(Nc1ccc(Br)c2cccnc12)c1ccc(Cn2cc(Cl)cn2)o1` [CBK265893], the “% of control remaining” value amounted to 125.071%.
Consider `Cc1ccc(C2C(C(=O)c3sc(-c4ccccc4)nc3C)=C(O)C(=O)N2CCN(C)C)o1` (stereo not drawn) [CBK234004], for which the “% of control remaining” value stood at 177.903%.
Consider `Cc1ccc2c(CC(=O)N(C)CCc3cn[nH]c3)coc2c1` [CBK283239], for which the “% of control remaining” value was 115.486%.
For `Cc1nccn1CC(C)C(=O)NCCN(C)C1CCCCC1` (stereo not drawn) [CBK282040] the value was 122.075%; for `O=C(Cc1ccccc1Cl)NCc1nnc(-c2cccs2)o1` [CBK284643], 95.6653%; for `Cc1nn(S(=O)(=O)c2cccc3nsnc23)c(C)c1Cl` [CBK270323], 114.609%.
For `Cc1ccsc1CN(C)C(=O)NC1CCCc2c1cnn2CCO` (stereo not drawn) [CBK306349] the value was 97.3158%; for `CCN(CCO)c1ccc(Nc2cc(-c3cc4ccccc4o3)ncn2)cc1` [CBK090999], 185.239%.
As for `CCNC(=O)N1CC2(CCN(CCS(=O)(=O)c3ccccc3)CC2)c2ccccc21` [CBK126698], the “% of control remaining” value amounted to 117.068%.
The figure for `O=C(c1ccc2ccccc2n1)N1CCC(Cc2ccccc2)CC1` [CBK200184] is 103.183%.
